# Results published in patent US7648824B2, “Method of sequencing DNA” (Qiagen GmbH, priority 2000, dated 2010).
# Tested on: pUC19-derived template
# Test: PPi-based DNA sequencing of pUC19-derived template with and without Rp-dATPαS
# Format: biochemical
# Conditions: stepwise nucleotide addition, 10 U (exo-) Klenow, 40 mU apyrase, with dCTP, dGTP and dTTP
row,Structure (SMILES),signal quality and read-length
1,"Nc1ncnc2c1ncn2[C@H]1C[C@H](O)[C@@H](COP(O)(=S)OP(=O)(O)OP(=O)(O)O)O1 (single isomer, unassigned) [Sp isomer]",a longer read-length is obtained
2,"Nc1ncnc2c1ncn2[C@H]1C[C@H](O)[C@@H](COP(O)(=S)OP(=O)(O)OP(=O)(O)O)O1 (stereo partly drawn) [dATPαS, deoxyadenosine α-thiotriphosphate]",signal quality gradually deteriorates
